The record followed here is article PMC7360120.

Results are given in words; binding and its absence hold for the method and conditions named. A result given as binding can be weak or reduced; the word gives no strength. Where a sequence is shown, tags or fusion partners need not be part of it.

The assay deals with GST-ELKS1αB 697-992. In words: pull-down; GST-ELKS fragments on glutathione-Sepharose with soluble purified His-Rab6 point mutants (1.2 μM); 150 mM NaCl, 20 mM HEPES pH 7.4, 4 mM EGTA, 1 mM DTT, 1% Triton X-100, 0.1 mg/ml BSA, 5 mM Mg2+, 1 h at 4°C; T7 western blot; both purified. (In general: In western blotting, separated proteins are transferred to a membrane and probed.)

B1: His-Rab6A Q72L (protein, UniProt P35279 1-208)
chain: MSAGGDFGNPLRKFKLVFLGEQSVGKTSLITRFMYDSFDNTYQATIGIDFLSKTMYLEDRTVRLQLWDTAGLERFRSLIPSYIRDSTVAVVVYDITNVNSFQQTTKWIDDVRTERGSDVIIMLVGNKTDLADKRQVSIEEGERKAKELNVMFIETSAKAGYNVKQLFRRVAAALPGMESTQDRSREDMIDIKLEKPQEQPVNEGGCSC
Consider B1, for which the binding result was “binds”.
